Measured values taken from the supplement of paper PMC12823440, “Inhibitors supercharge kinase turnover through native proteolytic circuits” (Nature, 2025).
Counter-ions that a name gives are not always drawn. The list shows a part of the results. Hit calls seldom repeat between salt and free forms of one compound.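 In K562 cells expressing nanoluciferase-fused kinases, luminescence was recorded at 4 h intervals between 2 and 18 h, normalized as percent of control with DMSO at 100% and a positive control at 0%. A significant (2 sigma) signal drop marks a time point as decreased. The authors' rule for a hit is not shown and takes in more than the number of time points.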

Sequences of proteins named here, by UniProt entry; tags and fusion partners are left off. A change or cut given only in a name is not applied to a line headed by its entry.
UniProt Q06187: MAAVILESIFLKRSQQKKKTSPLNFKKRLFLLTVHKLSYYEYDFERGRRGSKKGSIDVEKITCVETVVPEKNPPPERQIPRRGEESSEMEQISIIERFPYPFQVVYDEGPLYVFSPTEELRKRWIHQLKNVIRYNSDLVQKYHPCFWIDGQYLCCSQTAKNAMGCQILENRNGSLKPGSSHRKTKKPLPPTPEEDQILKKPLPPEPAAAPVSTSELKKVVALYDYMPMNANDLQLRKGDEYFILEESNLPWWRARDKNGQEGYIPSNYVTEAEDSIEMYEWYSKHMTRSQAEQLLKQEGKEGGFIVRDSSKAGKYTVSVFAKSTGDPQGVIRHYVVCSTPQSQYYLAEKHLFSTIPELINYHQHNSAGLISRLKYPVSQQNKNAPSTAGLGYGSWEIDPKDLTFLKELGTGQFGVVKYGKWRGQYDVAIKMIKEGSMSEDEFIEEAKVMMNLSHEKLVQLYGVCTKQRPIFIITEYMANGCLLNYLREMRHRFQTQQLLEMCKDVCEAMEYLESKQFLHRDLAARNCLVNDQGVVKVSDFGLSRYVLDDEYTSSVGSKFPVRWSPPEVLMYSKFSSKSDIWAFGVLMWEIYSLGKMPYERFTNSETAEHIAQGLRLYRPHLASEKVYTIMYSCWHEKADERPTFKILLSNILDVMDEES
UniProt Q9UQM7, whole entry: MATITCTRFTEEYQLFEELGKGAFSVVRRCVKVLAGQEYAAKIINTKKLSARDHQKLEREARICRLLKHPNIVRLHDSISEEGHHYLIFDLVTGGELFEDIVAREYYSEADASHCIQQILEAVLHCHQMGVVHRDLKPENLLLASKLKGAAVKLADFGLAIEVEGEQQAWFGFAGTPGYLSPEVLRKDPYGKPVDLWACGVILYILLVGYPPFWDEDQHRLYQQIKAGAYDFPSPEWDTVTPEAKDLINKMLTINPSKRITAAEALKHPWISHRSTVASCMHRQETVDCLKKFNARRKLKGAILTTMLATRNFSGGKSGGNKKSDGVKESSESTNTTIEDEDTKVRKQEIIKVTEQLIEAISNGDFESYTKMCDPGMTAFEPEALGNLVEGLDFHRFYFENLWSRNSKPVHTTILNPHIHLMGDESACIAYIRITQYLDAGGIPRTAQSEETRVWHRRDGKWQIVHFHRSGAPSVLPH

Each compound was assayed against BTK (UniProt Q06187) (assay: kinase-Nluc reporter destabilization hit call (1 = scored as downregulated) (binary); higher = compound decreases kinase abundance). Settings: K562; 2-18 h.

kinase-Nluc reporter destabilization hit call, inactive:
O=C(O)c1ccc(/C=C/S(=O)(=O)Cc2ccc(Cl)cc2)cc1 [Recilisib] (10 µM) 0
Nc1nc(NCCNc2ncc(-n3ccnc3)c(-c3ccc(Cl)cc3Cl)n2)ccc1[N+](=O)[O-] (2.5 µM) 0
Cc1cnc(NC(=O)c2cc(Oc3cnc(C(=O)N(C)C)nc3)c3cc(C)oc3c2)cn1 (10 µM) 0
CNC(=O)CNc1cnc2ccc(-c3ccc(OC)c(OC)c3)cc2n1 (10 µM) 0
N[C@@H]1CCCN(c2c(/C=C3\SC(=O)NC3=O)cccc2-c2ccccc2)C1 (10 µM) 0
CO[C@H]1C[C@@H]2CC[C@@H](C)[C@@](O)(O2)C(=O)C(=O)N2CCCC[C@H]2C(=O)O[C@H]([C@H](C)C[C@@H]2CC[C@@H](OC(=O)C(C)(CO)CO)[C@H](OC)C2)CC(=O)[C@H](C)/C=C(\C)[C@@H](O)[C@@H](OC)C(=O)[C@H](C)C[C@H](C)/C=C/C=C/C=C/1C [Temsirolimus] (2.5 µM) 0
COc1cc2nccc(Oc3ccc(NC(=O)c4cn(C(C)C)c(=O)n(-c5ccc(F)cc5)c4=O)cc3F)c2cc1OC (0.5 µM) 0
C=C1CCC[C@]2(C)C=C3OC(=O)C(C)=C3C[C@@H]12 [Atractylenolide I] (10 µM) 0
C=CC(=O)Nc1cc(Nc2nccc(-c3cn(C)c4ccccc34)n2)c(OC)cc1OCCN(C)C [Rezivertinib] (2.5 µM) 0
C=C1C(=O)[C@@]23[C@H](O)C[C@@H]4C(C)(C)C(=O)CC[C@@]4(C)[C@@H]2CC[C@@H]1[C@H]3O [Glaucocalyxin A] (2.5 µM) 0
NC1(C(=O)NCCCn2cc(-c3ccc(OC(F)(F)F)cc3)c3cc(CN4CCN(Cc5c(Cl)cccc5Cl)CC4)ccc32)CCNCC1 (2.5 µM) 0
CC(Sc1nc2c(cnn2-c2cccc(Cl)c2)c(=O)[nH]1)C(N)=O (centres undefined) (10 µM) 0
Fc1ccc2[nH]ccc2c1-c1nc(N2CCOCC2)c2sc(CN3CCN(CC4CC4)CC3)cc2n1 (10 µM) 0
Cn1cc(-c2cc(Oc3cc(F)c(NC(=O)C4(C(=O)Nc5ccccc5)CC4)cc3F)ccn2)cn1 (2.5 µM) 0
COc1ccc(S(=O)(=O)Nc2cc(-c3c(O)ccc4ccccc34)c(O)c3ccccc23)cc1 (10 µM) 0
Cn1c2cc([S+](C)[O-])sc2c2cnn(Cc3cccc(N)c3)c(=O)c21 (centres undefined) (2.5 µM) 0
O=C(NCCO)c1cc(C(=O)NCCO)cc(C(=O)NCCO)c1 (10 µM) 0
N#Cc1cnc2c(Cl)cc(NCc3cn(CCN4CCCCCC4)nn3)cc2c1Nc1ccc(F)c(Cl)c1 [Cot inhibitor-1] (10 µM) 0
Cn1c(=O)c2c(nc(S(C)(=O)=O)n2C)n(CC#Cc2cccc(O)c2)c1=O (2.5 µM) 0
Cc1ccc(C)c(OCCn2cc(C(=O)O)c3ccccc32)c1 (10 µM) 0
C=CC(=O)Nc1ccc(C(=O)Nc2[nH]nc3c2CN(C(=O)N[C@H](CN(C)C)c2ccccc2)C3(C)C)cc1 (10 µM) 0
Nc1ncnc2c1nc(Br)n2[C@@H]1O[C@@H]2COP(=O)(O)O[C@H]2[C@H]1O [8-Bromo-cAMP sodium salt] (10 µM) 0
O=c1[nH]ccc2nc(-c3ccc(CN4CCC(c5nc(-c6ccccn6)n[nH]5)CC4)cc3)c(-c3ccccc3)cc12 (10 µM) 0
COc1ccc(Nc2ncc(C(F)(F)F)c(NC3CC3)n2)cc1OC (10 µM) 0
O=C1NC(=O)/C(=C\c2c[nH]c(=O)c(-c3ccc(N4CCNCC4)nc3)c2)S1 [Protein kinase inhibitors 1 hydrochloride] (10 µM) 0
CCN(CC)CCCC(C)Nc1nc(C)cc(Nc2ccc3nc(C)cc(N)c3c2)n1 (centres undefined) (10 µM) 0

What follows are compounds tested against CAMK2A (UniProt Q9UQM7) in the same assay as above. Settings: K562; 2-18 h.

kinase-Nluc reporter destabilization hit call, inactive:
CC(C)CCN1c2nc(Nc3cc(F)c(O)c(F)c3)ncc2N(C)C(=O)C1C (centres undefined) (2.5 µM) 0
CC(C)=CC[C@@H](O)C1=CC(=O)c2c(O)ccc(O)c2C1=O [Shikonin] (10 µM) 0
CCC(=O)Nc1cccc(Oc2nc(Nc3ccc(N4CCN(C)CC4)cc3OC)ncc2Cl)c1 (10 µM) 0
CC(C)=CCC/C(C)=C/CC/C(C)=C/C=C/C(C)=C/C(=O)O [Peretinoin] (10 µM) 0
COc1ccc2c(Oc3ccc4c(C(=O)Nc5ccccc5N)cccc4c3)ccnc2c1 [Chiauranib] (10 µM) 0
Cc1nn(C)cc1-c1nc2c(N3CCN(Cc4ccc(Cl)cc4)CC3)c(Cl)cnc2[nH]1 (10 µM) 0
CNC(=O)c1cc2c(Oc3ccc(NC(=O)C4(C(=O)Nc5ccc(F)cc5)CC4)cc3)ccnc2cc1OC (2.5 µM) 0
O=C(Nc1cccnc1)c1cc(-c2ccnc(F)c2)ccc1OCc1ccccc1 (10 µM) 0
CN(C)c1ccc(-c2nc3ncc(Cl)c(N4CCN(CC(=O)Nc5nccs5)CC4)c3[nH]2)cc1 (2 µM) 0
Cc1cc(C(=O)NC(C)(C)C)cc(C#Cc2ccc3c4c(oc3c2)C(C)(C)c2cc(NS(C)(=O)=O)ccc2C4=O)n1 (10 µM) 0
O=C(O)c1cc(N(Cc2ccccc2O)Cc2cc(O)ccc2O)ccc1O [Lavendustin A] (10 µM) 0
C[C@@H](Nc1ncnc2[nH]c(-c3ccc(O)cc3)cc12)c1ccccc1 (2.5 µM) 0
O=C(O)c1ccc(/C=C/S(=O)(=O)Cc2ccc(Cl)cc2)cc1 [Recilisib] (10 µM) 0
Nc1nc(NCCNc2ncc(-n3ccnc3)c(-c3ccc(Cl)cc3Cl)n2)ccc1[N+](=O)[O-] (2.5 µM) 0
Cc1cnc(NC(=O)c2cc(Oc3cnc(C(=O)N(C)C)nc3)c3cc(C)oc3c2)cn1 (10 µM) 0
CNC(=O)CNc1cnc2ccc(-c3ccc(OC)c(OC)c3)cc2n1 (10 µM) 0
N[C@@H]1CCCN(c2c(/C=C3\SC(=O)NC3=O)cccc2-c2ccccc2)C1 (10 µM) 0
CO[C@H]1C[C@@H]2CC[C@@H](C)[C@@](O)(O2)C(=O)C(=O)N2CCCC[C@H]2C(=O)O[C@H]([C@H](C)C[C@@H]2CC[C@@H](OC(=O)C(C)(CO)CO)[C@H](OC)C2)CC(=O)[C@H](C)/C=C(\C)[C@@H](O)[C@@H](OC)C(=O)[C@H](C)C[C@H](C)/C=C/C=C/C=C/1C [Temsirolimus] (2.5 µM) 0
COc1cc2nccc(Oc3ccc(NC(=O)c4cn(C(C)C)c(=O)n(-c5ccc(F)cc5)c4=O)cc3F)c2cc1OC (0.5 µM) 0
C=C1CCC[C@]2(C)C=C3OC(=O)C(C)=C3C[C@@H]12 [Atractylenolide I] (10 µM) 0
C=CC(=O)Nc1cc(Nc2nccc(-c3cn(C)c4ccccc34)n2)c(OC)cc1OCCN(C)C [Rezivertinib] (2.5 µM) 0
C=C1C(=O)[C@@]23[C@H](O)C[C@@H]4C(C)(C)C(=O)CC[C@@]4(C)[C@@H]2CC[C@@H]1[C@H]3O [Glaucocalyxin A] (2.5 µM) 0
NC1(C(=O)NCCCn2cc(-c3ccc(OC(F)(F)F)cc3)c3cc(CN4CCN(Cc5c(Cl)cccc5Cl)CC4)ccc32)CCNCC1 (2.5 µM) 0
CC(Sc1nc2c(cnn2-c2cccc(Cl)c2)c(=O)[nH]1)C(N)=O (centres undefined) (10 µM) 0
Fc1ccc2[nH]ccc2c1-c1nc(N2CCOCC2)c2sc(CN3CCN(CC4CC4)CC3)cc2n1 (10 µM) 0
Cn1cc(-c2cc(Oc3cc(F)c(NC(=O)C4(C(=O)Nc5ccccc5)CC4)cc3F)ccn2)cn1 (2.5 µM) 0
COc1ccc(S(=O)(=O)Nc2cc(-c3c(O)ccc4ccccc34)c(O)c3ccccc23)cc1 (10 µM) 0
Cn1c2cc([S+](C)[O-])sc2c2cnn(Cc3cccc(N)c3)c(=O)c21 (centres undefined) (2.5 µM) 0
O=C(NCCO)c1cc(C(=O)NCCO)cc(C(=O)NCCO)c1 (10 µM) 0
N#Cc1cnc2c(Cl)cc(NCc3cn(CCN4CCCCCC4)nn3)cc2c1Nc1ccc(F)c(Cl)c1 [Cot inhibitor-1] (10 µM) 0
Cn1c(=O)c2c(nc(S(C)(=O)=O)n2C)n(CC#Cc2cccc(O)c2)c1=O (2.5 µM) 0
Cc1ccc(C)c(OCCn2cc(C(=O)O)c3ccccc32)c1 (10 µM) 0
C=CC(=O)Nc1ccc(C(=O)Nc2[nH]nc3c2CN(C(=O)N[C@H](CN(C)C)c2ccccc2)C3(C)C)cc1 (10 µM) 0
Nc1ncnc2c1nc(Br)n2[C@@H]1O[C@@H]2COP(=O)(O)O[C@H]2[C@H]1O [8-Bromo-cAMP sodium salt] (10 µM) 0
O=c1[nH]ccc2nc(-c3ccc(CN4CCC(c5nc(-c6ccccn6)n[nH]5)CC4)cc3)c(-c3ccccc3)cc12 (10 µM) 0
COc1ccc(Nc2ncc(C(F)(F)F)c(NC3CC3)n2)cc1OC (10 µM) 0
O=C1NC(=O)/C(=C\c2c[nH]c(=O)c(-c3ccc(N4CCNCC4)nc3)c2)S1 [Protein kinase inhibitors 1 hydrochloride] (10 µM) 0
CCN(CC)CCCC(C)Nc1nc(C)cc(Nc2ccc3nc(C)cc(N)c3c2)n1 (centres undefined) (10 µM) 0
